No constants are given. Whether binding was seen depends on the method and setting. Binding seen in cells or lysates may run through a third protein. Some entries that bind do so weakly or less than the wild type.
Legend:
HA-tagged CK1ε = HA-tagged CK1ε (UniProt P49674); test: co-IP; 293T cells transiently transfected with Flag-REGγ and HA-CK1ε; reciprocal precipitation with HA beads, western blot
Flag-tagged REGγ = Flag-tagged REGγ (UniProt P61289); test: co-IP; 293T cells transiently transfected with Flag-REGγ and HA-CK1ε; precipitation with Flag beads, western blot

Sequences of proteins named here, by UniProt entry; tags and fusion partners are left off.
UniProt P49674: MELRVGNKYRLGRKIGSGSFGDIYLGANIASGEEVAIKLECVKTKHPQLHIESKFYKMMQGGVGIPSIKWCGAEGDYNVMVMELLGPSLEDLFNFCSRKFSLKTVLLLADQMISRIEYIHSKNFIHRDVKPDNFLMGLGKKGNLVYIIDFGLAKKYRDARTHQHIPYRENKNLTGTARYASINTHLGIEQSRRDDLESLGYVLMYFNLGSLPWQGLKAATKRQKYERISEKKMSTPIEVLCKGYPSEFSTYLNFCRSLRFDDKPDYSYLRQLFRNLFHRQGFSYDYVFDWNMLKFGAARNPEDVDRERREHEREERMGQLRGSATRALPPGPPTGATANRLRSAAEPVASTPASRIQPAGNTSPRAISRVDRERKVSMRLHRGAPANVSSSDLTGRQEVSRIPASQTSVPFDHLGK
UniProt P61289: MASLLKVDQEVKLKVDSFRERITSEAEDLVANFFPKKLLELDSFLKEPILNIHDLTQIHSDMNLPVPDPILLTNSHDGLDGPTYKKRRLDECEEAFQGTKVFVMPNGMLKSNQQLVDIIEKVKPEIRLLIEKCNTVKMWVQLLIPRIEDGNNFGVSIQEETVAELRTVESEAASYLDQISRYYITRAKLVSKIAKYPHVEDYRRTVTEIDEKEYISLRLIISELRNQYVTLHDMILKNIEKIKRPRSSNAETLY

| binding (HA-tagged CK1ε) | binding (Flag-tagged REGγ) | Substance |
| --- | --- | --- |
| binds |  | Flag-tagged REGγ (from UniProt P61289 1-254) |
|  | binds | HA-tagged CK1ε (from UniProt P49674 1-416) |

— paper PMC5967313
